Results published in patent publication US20260242455A1.
Numbering of substitutions follows the chain as printed. Names may count otherwise. These are yes or no findings as the source states them, for the method shown. Some binding calls cover weakened binding; strength is not graded here. Values belong to the binder of their own block, whether it stands above or below them.

Protein sequences, listed by entry. Tags and fused reporters are not part of them. Residues count along the entry.
UniProt O14793, residues 24-375: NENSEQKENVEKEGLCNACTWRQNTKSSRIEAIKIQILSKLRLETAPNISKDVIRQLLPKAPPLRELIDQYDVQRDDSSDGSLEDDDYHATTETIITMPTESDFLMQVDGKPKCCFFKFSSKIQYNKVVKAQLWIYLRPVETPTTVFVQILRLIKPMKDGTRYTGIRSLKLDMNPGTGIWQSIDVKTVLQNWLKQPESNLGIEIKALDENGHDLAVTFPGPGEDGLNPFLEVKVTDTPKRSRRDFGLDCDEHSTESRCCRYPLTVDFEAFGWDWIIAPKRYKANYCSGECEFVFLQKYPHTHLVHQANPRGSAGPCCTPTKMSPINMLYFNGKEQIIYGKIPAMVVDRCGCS

Assays:
[1] = target: pro-myostatin (proGDF8), species not stated in the experiment (UniProt O14793); test: ELISA / Octet
[2] = target: pro-myostatin (proGDF8), species not stated in the experiment (UniProt O14793); test: Octet, compared with parental Ab1

binding [1]: binds
B1: Ab8 (antibody, V domains shown)
VH: QIQLVQSGAEVKKPGASVKVSCKASGYTFTSYGISWVRQAPGQGLEWMGWISAYNGNTNYAQKLQGRVTMTTDTSTSTAYMELSSLRSEDTAVYYCARVGFYDYVWGSYPYDAFDIWGQGTMVTVSS
VL: EIVMTQSPGTLSLSPGERATLSCRASQSVSSNYLAWYQQKPGQAPRLLIYDASNRATGIPARFSGSGSGTDFTLTISSLEPEDFALYYCQQYGTSPLTFGGGTKLEIKR

binding [2]: binds
B2: Ab3 (affinity optimized, parental frameworks), IgG4 (S228P) (antibody, V domains shown)
VH: QIQLVQSGGGVVQPGRSLRLSCAASGFAFSSYGMHWVRQAPGKGLEWVAVISYDGSIKYYADSVKGRFTISRDNSKNTLYLQMNSLRAEDTAVYYCARDLLVRFLEWSHKYGMDVWGQGTTVTVSS
VL: QPVLTQPPSASGTPGQRVTISCSGSTSNIGSNTVHWYQQLPGTAPKLLIYSDDQRPSGVPDRFSGSKSGTSASLVISGLQSDDEADYYCAAWDESLNGVFGGGTKLTVL

binding [2]: binds
B3: Ab5 (affinity optimized, parental frameworks), IgG4 (S228P) (antibody, V domains shown)
VH: B2 VH with S56N, I57N
VL: B2 VL with T26S, S31G
